In this experiment the target is T1, METTL16 methyltransferase (methyltransferase-like 16) (mouse (endogenous in MEFs)) (UniProt Q9CQG2).
T1 sequence: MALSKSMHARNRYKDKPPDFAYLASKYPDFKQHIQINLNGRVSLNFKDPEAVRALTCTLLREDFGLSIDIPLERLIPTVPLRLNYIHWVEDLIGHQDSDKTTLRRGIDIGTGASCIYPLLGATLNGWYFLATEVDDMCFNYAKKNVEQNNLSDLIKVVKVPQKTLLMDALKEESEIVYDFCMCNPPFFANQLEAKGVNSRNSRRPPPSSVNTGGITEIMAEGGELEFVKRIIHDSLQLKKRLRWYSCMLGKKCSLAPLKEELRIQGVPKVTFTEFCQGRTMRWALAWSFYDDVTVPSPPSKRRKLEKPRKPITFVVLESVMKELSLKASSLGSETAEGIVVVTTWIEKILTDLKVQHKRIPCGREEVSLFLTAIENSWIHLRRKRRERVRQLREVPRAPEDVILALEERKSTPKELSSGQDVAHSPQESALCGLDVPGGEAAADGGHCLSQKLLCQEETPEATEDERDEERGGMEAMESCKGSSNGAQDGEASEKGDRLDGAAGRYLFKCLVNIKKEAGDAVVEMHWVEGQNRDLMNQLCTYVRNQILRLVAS
As to the kind of experiment: co-IP; 500 μg lysate (Pierce IP Lysis Buffer) of wt MEFs or LMNA dn cells, non-irradiated or UVA-irradiated, precipitated with anti-METTL16 antibody (HPA020352) or control rabbit IgG on Catch and Release v2.0 columns, overnight at 4 °C; eluate blotted for the partners.

These are yes or no findings as the source states them, for the method shown. Binding seen in cells or lysates may run through a third protein.

In the case of “B-type lamin (mouse (endogenous in MEFs))”, the binding entry is recorded as “no binding”.

The record behind these values is paper PMC8305168.
